Assay results as given in patent US20040157214A1.

Legend:
Assay in all cases: phage ELISA, 100 ug/ml antigen
[1] = molecular target: glyceraldehyde-3-phosphate dehydrogenase
[2] = molecular target: trypsin inhibitor
[3] = molecular target: keyhole limpet haemocyanin (keyhole limpet)
[4] = molecular target: thyroglobulin
[5] = molecular target: cytochrome C

Measured: binding

B1: Lysozyme binder VH14.1 / VL14.1 (scFv, V domains shown)
VH: QVQLQESGPGLVKPSETLSLVCTVSGGSLSFSYWGWIRQPPGKGLEWIGYISHRGTDYNSSLQSRVTISADTSKNQFSLKLSSVTAADTAVYYCARSFSNSFFFGYWGQGT
VL: SSELTQDPAVSVAFGQTVRITCQGDSLRSSYASWYQQKPGQAPLLVIYGENSRPSGIPDRFSGSSSGNTASLTITGAQAEDEADYYCNSRDSRGTHLEVFGG
no binding: all assays above

B2: Lysozyme binder VH13.1 / VL13.1 (scFv, V domains shown)
VH: QVQLVQSGAEVKKPGQSLMISCQGSGYSFSNYWIGWVRQMPGKGLEWMGIIYPGDSDTRYSPSFQGQVTISADKSISTAYLHWSSLKASDTALYYCARLVGGTPAYWGQGT
VL: HVILTQPASVSGSPGQSITISCTGSSRDVGGYNYVSWYQHHPGKAPKLLISEVTNRPSGVSNRFSGSKSGNTASLTISGLQAEDEADYFCASYTSSKTYVFGG
no binding: all assays above

These are yes or no findings as the source states them, for the method shown.
